Results as given in article PMC5796017, “Enantiomeric Effect of D-Amino Acid Substitution on the Mechanism of Action of α-Helical Membrane-Active Peptides” (International Journal of Molecular Sciences, 2017).

Tests used:
[1] = Tryptophan fluorescence in HEPES buffer; conditions: HEPES buffer pH 7.4, 16 μM peptide, 25 °C, excitation 280 nm
[2] = Tryptophan fluorescence with LUV model membrane; conditions: 16 μM peptide; for Tryptophan emission maximum wavelength, PC/PG: 0.1 mM LUVs mimicking prokaryotic membranes, 25 °C, 10 min; for Blue Shift, PC/PG: versus HEPES buffer, 0.1 mM LUVs
[3] = Tryptophan fluorescence with LUV model membrane; conditions: 16 μM peptide; for Tryptophan emission maximum wavelength, PC/SM/PE/PS/Chol: 0.1 mM LUVs mimicking cancer cell membranes, 25 °C, 10 min; for Blue Shift, PC/SM/PE/PS/Chol: versus HEPES buffer, 0.1 mM LUVs
[4] = Tryptophan fluorescence with LUV model membrane; conditions: 16 μM peptide; for Tryptophan emission maximum wavelength, PC/Chol: 0.1 mM LUVs mimicking normal eukaryotic membranes, 10 min; for Tryptophan emission maximum wavelength, PC/Chol / Tryptophan fluorescence Intensity, PC/Chol: 25 °C; for Tryptophan fluorescence Intensity, PC/Chol / Blue Shift, PC/Chol: 0.1 mM LUVs; for Blue Shift, PC/Chol: versus HEPES buffer

Row | SMILES | Tryptophan fluorescence emission maximum in HEPES [1] [nm] | Tryptophan emission maximum wavelength, PC/PG [2] [nm] | Blue Shift, PC/PG [2] [nm] | Tryptophan emission maximum wavelength, PC/SM/PE/PS/Chol [3] [nm] | Blue Shift, PC/SM/PE/PS/Chol [3] [nm] | Tryptophan emission maximum wavelength, PC/Chol [4] [nm] | Tryptophan fluorescence Intensity, PC/Chol [4] | Blue Shift, PC/Chol [4] [nm]
1 | CC[C@H](C)[C@H](NC(=O)[C@H](C)NC(=O)[C@H](CCCCN)NC(=O)[C@H](CC(C)C)NC(=O)[C@H](C)NC(=O)[C@@H](NC(=O)[C@H](Cc1c[nH]cn1)NC(=O)[C@H](CC(C)C)NC(=O)[C@H](NC(=O)[C@@H](NC(=O)[C@H](CCCCN)NC(=O)[C@H](CCCCN)NC(=O)[C@@H](C)NC(=O)[C@H](CO)NC(=O)[C@H](CCCCN)NC(=O)[C@H](Cc1ccccc1)NC(=O)[C@@H](NC(=O)[C@H](CCCCN)NC(=O)[C@H](CC(C)C)NC(=O)[C@H](Cc1ccccc1)NC(=O)[C@H](CO)NC(=O)[C@H](CCCCN)NC(=O)[C@H](Cc1c[nH]c2ccccc12)NC(=O)[C@H](CCCCN)NC(C)=O)[C@@H](C)O)[C@@H](C)O)C(C)C)[C@@H](C)O)C(=O)N[C@@H](CO)C(=O)N[C@@H](CO)C(N)=O [A12D/V16D] | 350 | 336 | 14 | – | – | – | – | –
2 | CC[C@H](C)[C@H](NC(=O)[C@H](C)NC(=O)[C@H](CCCCN)NC(=O)[C@H](CC(C)C)NC(=O)[C@H](C)NC(=O)[C@@H](NC(=O)[C@H](Cc1c[nH]cn1)NC(=O)[C@H](CC(C)C)NC(=O)[C@H](NC(=O)[C@@H](NC(=O)[C@H](CCCCN)NC(=O)[C@H](CCCCN)NC(=O)[C@@H](C)NC(=O)[C@H](CO)NC(=O)[C@H](CCCCN)NC(=O)[C@@H](Cc1ccccc1)NC(=O)[C@@H](NC(=O)[C@H](CCCCN)NC(=O)[C@H](CC(C)C)NC(=O)[C@H](Cc1ccccc1)NC(=O)[C@H](CO)NC(=O)[C@H](CCCCN)NC(=O)[C@H](Cc1c[nH]c2ccccc12)NC(=O)[C@H](CCCCN)NC(C)=O)[C@@H](C)O)[C@@H](C)O)C(C)C)[C@@H](C)O)C(=O)N[C@@H](CO)C(=O)N[C@@H](CO)C(N)=O [F9D/A12D/V16D] | – | 335 | 11 | 337 | 9 | 346 | 261 | 0
3 | CC[C@H](C)[C@H](NC(=O)[C@H](C)NC(=O)[C@H](CCCCN)NC(=O)[C@H](CC(C)C)NC(=O)[C@H](C)NC(=O)[C@@H](NC(=O)[C@H](Cc1c[nH]cn1)NC(=O)[C@H](CC(C)C)NC(=O)[C@@H](NC(=O)[C@@H](NC(=O)[C@H](CCCCN)NC(=O)[C@H](CCCCN)NC(=O)[C@@H](C)NC(=O)[C@H](CO)NC(=O)[C@H](CCCCN)NC(=O)[C@@H](Cc1ccccc1)NC(=O)[C@@H](NC(=O)[C@H](CCCCN)NC(=O)[C@H](CC(C)C)NC(=O)[C@H](Cc1ccccc1)NC(=O)[C@H](CO)NC(=O)[C@H](CCCCN)NC(=O)[C@H](Cc1c[nH]c2ccccc12)NC(=O)[C@H](CCCCN)NC(C)=O)[C@@H](C)O)[C@@H](C)O)C(C)C)[C@@H](C)O)C(=O)N[C@@H](CO)C(=O)N[C@@H](CO)C(N)=O [F9D/A12D] | 350 | 335 | 15 | 331 | 19 | – | – | –
4 | CC[C@H](C)[C@H](NC(=O)[C@H](C)NC(=O)[C@H](CCCCN)NC(=O)[C@H](CC(C)C)NC(=O)[C@H](C)NC(=O)[C@@H](NC(=O)[C@H](Cc1c[nH]cn1)NC(=O)[C@H](CC(C)C)NC(=O)[C@@H](NC(=O)[C@H](NC(=O)[C@@H](CCCCN)NC(=O)[C@H](CCCCN)NC(=O)[C@H](C)NC(=O)[C@H](CO)NC(=O)[C@H](CCCCN)NC(=O)[C@H](Cc1ccccc1)NC(=O)[C@@H](NC(=O)[C@H](CCCCN)NC(=O)[C@H](CC(C)C)NC(=O)[C@H](Cc1ccccc1)NC(=O)[C@H](CO)NC(=O)[C@H](CCCCN)NC(=O)[C@H](Cc1c[nH]c2ccccc12)NC(=O)[C@H](CCCCN)NC(C)=O)[C@@H](C)O)[C@H](C)O)C(C)C)[C@@H](C)O)C(=O)N[C@@H](CO)C(=O)N[C@@H](CO)C(N)=O [K14D/T15D] | – | 336 | 13 | – | – | – | – | –
5 | CC[C@H](C)[C@H](NC(=O)[C@H](C)NC(=O)[C@H](CCCCN)NC(=O)[C@H](CC(C)C)NC(=O)[C@H](C)NC(=O)[C@@H](NC(=O)[C@H](Cc1c[nH]cn1)NC(=O)[C@H](CC(C)C)NC(=O)[C@@H](NC(=O)[C@@H](NC(=O)[C@H](CCCCN)NC(=O)[C@H](CCCCN)NC(=O)[C@@H](C)NC(=O)[C@H](CO)NC(=O)[C@H](CCCCN)NC(=O)[C@H](Cc1ccccc1)NC(=O)[C@@H](NC(=O)[C@H](CCCCN)NC(=O)[C@H](CC(C)C)NC(=O)[C@H](Cc1ccccc1)NC(=O)[C@H](CO)NC(=O)[C@H](CCCCN)NC(=O)[C@H](Cc1c[nH]c2ccccc12)NC(=O)[C@H](CCCCN)NC(C)=O)[C@@H](C)O)[C@@H](C)O)C(C)C)[C@@H](C)O)C(=O)N[C@@H](CO)C(=O)N[C@@H](CO)C(N)=O [Peptide A12D] | – | 328 | 23 | 327 | 24 | 345 | 464 | 6
6 | CC[C@H](C)[C@H](NC(=O)[C@H](C)NC(=O)[C@H](CCCCN)NC(=O)[C@H](CC(C)C)NC(=O)[C@H](C)NC(=O)[C@@H](NC(=O)[C@H](Cc1c[nH]cn1)NC(=O)[C@H](CC(C)C)NC(=O)[C@@H](NC(=O)[C@@H](NC(=O)[C@@H](CCCCN)NC(=O)[C@H](CCCCN)NC(=O)[C@H](C)NC(=O)[C@H](CO)NC(=O)[C@H](CCCCN)NC(=O)[C@H](Cc1ccccc1)NC(=O)[C@@H](NC(=O)[C@H](CCCCN)NC(=O)[C@H](CC(C)C)NC(=O)[C@H](Cc1ccccc1)NC(=O)[C@H](CO)NC(=O)[C@H](CCCCN)NC(=O)[C@H](Cc1c[nH]c2ccccc12)NC(=O)[C@H](CCCCN)NC(C)=O)[C@@H](C)O)[C@@H](C)O)C(C)C)[C@@H](C)O)C(=O)N[C@@H](CO)C(=O)N[C@@H](CO)C(N)=O [Peptide K14D] | – | 332 | 17 | 329 | 20 | – | – | –
7 | CC[C@H](C)[C@H](NC(=O)[C@H](C)NC(=O)[C@H](CCCCN)NC(=O)[C@H](CC(C)C)NC(=O)[C@H](C)NC(=O)[C@@H](NC(=O)[C@H](Cc1c[nH]cn1)NC(=O)[C@H](CC(C)C)NC(=O)[C@@H](NC(=O)[C@@H](NC(=O)[C@H](CCCCN)NC(=O)[C@H](CCCCN)NC(=O)[C@H](C)NC(=O)[C@H](CO)NC(=O)[C@H](CCCCN)NC(=O)[C@H](Cc1ccccc1)NC(=O)[C@@H](NC(=O)[C@H](CCCCN)NC(=O)[C@H](CC(C)C)NC(=O)[C@H](Cc1ccccc1)NC(=O)[C@H](CO)NC(=O)[C@H](CCCCN)NC(=O)[C@H](Cc1c[nH]c2ccccc12)NC(=O)[C@H](CCCCN)NC(C)=O)[C@@H](C)O)[C@@H](C)O)C(C)C)[C@@H](C)O)C(=O)N[C@@H](CO)C(=O)N[C@@H](CO)C(N)=O [Peptide V13K] | – | 329 | 24 | 330 | 23 | 344 | 486 | 9
8 | CC[C@H](C)[C@H](NC(=O)[C@H](C)NC(=O)[C@H](CCCCN)NC(=O)[C@H](CC(C)C)NC(=O)[C@H](C)NC(=O)[C@@H](NC(=O)[C@H](Cc1c[nH]cn1)NC(=O)[C@H](CC(C)C)NC(=O)[C@@H](NC(=O)[C@H](NC(=O)[C@@H](CCCCN)NC(=O)[C@H](CCCCN)NC(=O)[C@H](C)NC(=O)[C@@H](CO)NC(=O)[C@H](CCCCN)NC(=O)[C@H](Cc1ccccc1)NC(=O)[C@@H](NC(=O)[C@H](CCCCN)NC(=O)[C@H](CC(C)C)NC(=O)[C@H](Cc1ccccc1)NC(=O)[C@H](CO)NC(=O)[C@H](CCCCN)NC(=O)[C@H](Cc1c[nH]c2ccccc12)NC(=O)[C@H](CCCCN)NC(C)=O)[C@@H](C)O)[C@H](C)O)C(C)C)[C@@H](C)O)C(=O)N[C@@H](CO)C(=O)N[C@@H](CO)C(N)=O [S11D/K14D/T15D] | – | 339 | 6 | 335 | 10 | – | – | –
9 | CC[C@H](C)[C@H](NC(=O)[C@H](C)NC(=O)[C@H](CCCCN)NC(=O)[C@H](CC(C)C)NC(=O)[C@H](C)NC(=O)[C@@H](NC(=O)[C@H](Cc1c[nH]cn1)NC(=O)[C@H](CC(C)C)NC(=O)[C@@H](NC(=O)[C@@H](NC(=O)[C@@H](CCCCN)NC(=O)[C@H](CCCCN)NC(=O)[C@H](C)NC(=O)[C@@H](CO)NC(=O)[C@H](CCCCN)NC(=O)[C@H](Cc1ccccc1)NC(=O)[C@@H](NC(=O)[C@H](CCCCN)NC(=O)[C@H](CC(C)C)NC(=O)[C@H](Cc1ccccc1)NC(=O)[C@H](CO)NC(=O)[C@H](CCCCN)NC(=O)[C@H](Cc1c[nH]c2ccccc12)NC(=O)[C@H](CCCCN)NC(C)=O)[C@@H](C)O)[C@@H](C)O)C(C)C)[C@@H](C)O)C(=O)N[C@@H](CO)C(=O)N[C@@H](CO)C(N)=O [S11D/K14D] | 347 | 332 | 15 | 331 | 16 | 345 | 414 | 2
